# Some peptides are written in HELM: one residue between dots, names in brackets for other building blocks, links after the first $.
# Test: general procedure: Fmoc solid-phase peptide synthesis; NovaPEG Rink Amide resin; HBTU/HOBt/DIPEA
# Settings: whole synthesis, masses verified by MALDI-TOF, scale of the general procedure 25 μmole
row,Substance,final LC-MS purity [%]
1,Ac-DYDYPGDYSYLY,>95
2,Ac-DYDYPGDYSYLYGTCG,>95
3,Ac-DYLYGTCG,>95
4,"PEPTIDE1{[CH2CO].[dY].D.Y.P.G.D.H.C.Y.L.Y.G.T.C.G.[am]}$PEPTIDE1,PEPTIDE1,1:R3-9:R3$$$V2.0",>90
5,"PEPTIDE1{[CH2CO].[dY].D.Y.P.G.D.Y.C.Y.L.Y.G.T.[am]}$PEPTIDE1,PEPTIDE1,1:R3-9:R3$$$V2.0",>95
6,"PEPTIDE1{[CH2CO].[dY].D.Y.P.G.D.Y.C.Y.L.Y.G.[am]}$PEPTIDE1,PEPTIDE1,1:R3-9:R3$$$V2.0",>95
7,"PEPTIDE1{[CH2CO].[dY].D.Y.P.G.D.Y.C.Y.L.[am]}$PEPTIDE1,PEPTIDE1,1:R3-9:R3$$$V2.0",>90
8,"PEPTIDE1{[CH2CO].[dY].D.Y.P.G.D.Y.C.Y.[am]}$PEPTIDE1,PEPTIDE1,1:R3-9:R3$$$V2.0",>90

# From US20200399318A1 (priority 2016, published 2020)
